# Results of single-concentration screens

Amino acid sequences for entries named in this document (tags omitted). Residues count along the entry.
UniProt Q4DA54, 1-478: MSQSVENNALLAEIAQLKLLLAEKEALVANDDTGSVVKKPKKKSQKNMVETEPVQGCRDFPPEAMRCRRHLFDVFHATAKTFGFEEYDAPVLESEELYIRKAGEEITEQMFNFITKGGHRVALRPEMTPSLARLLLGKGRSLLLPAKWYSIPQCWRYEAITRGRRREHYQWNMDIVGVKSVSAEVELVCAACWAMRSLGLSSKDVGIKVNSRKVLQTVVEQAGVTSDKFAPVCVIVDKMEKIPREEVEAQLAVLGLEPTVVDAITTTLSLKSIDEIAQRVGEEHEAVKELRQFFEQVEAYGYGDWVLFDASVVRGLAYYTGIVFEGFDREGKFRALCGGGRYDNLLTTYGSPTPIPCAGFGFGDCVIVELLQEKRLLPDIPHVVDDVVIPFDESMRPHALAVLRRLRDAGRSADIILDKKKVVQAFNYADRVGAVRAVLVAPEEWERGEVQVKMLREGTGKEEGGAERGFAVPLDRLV
UniProt P9WPC5, whole entry: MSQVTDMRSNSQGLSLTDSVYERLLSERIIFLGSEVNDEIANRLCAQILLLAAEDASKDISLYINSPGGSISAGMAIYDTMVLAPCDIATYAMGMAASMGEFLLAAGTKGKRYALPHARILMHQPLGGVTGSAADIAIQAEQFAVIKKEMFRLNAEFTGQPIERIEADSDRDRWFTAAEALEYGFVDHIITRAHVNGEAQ
UniProt P9WPC3, whole entry partner: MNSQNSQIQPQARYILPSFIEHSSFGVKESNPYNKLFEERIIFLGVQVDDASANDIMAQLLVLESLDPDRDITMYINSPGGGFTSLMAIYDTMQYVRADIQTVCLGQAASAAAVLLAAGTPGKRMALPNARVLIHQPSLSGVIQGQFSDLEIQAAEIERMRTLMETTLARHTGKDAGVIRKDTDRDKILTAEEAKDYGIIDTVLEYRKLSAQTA

The values are deposited in ChEMBL (CHEMBL3988442, “University of Dundee, Small-Polar-MMV Screening Library” (2021)).

TcHisRS: 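Histidine-tRNA ligase, Trypanosoma cruzi CL Brener (UniProt Q4DA54). Enzyme assay of histidyl-tRNA synthetase; the read-out is not stated. Compounds at 30 µM. Direction is inferred from retests: higher values go with stronger inhibition. Of about 69,000 compounds tested this way, about 31 (0.045%) reached 50% or more in at least one test.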
ClpP1P2: 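Protease assay of ClpP1P2, read by the AMC dye that it sets free. Target: ClpP1P2, Mycobacterium tuberculosis (UniProt P9WPC5 and UniProt P9WPC3). Compounds at 50 µM. Direction is inferred from only a few compounds that gave an IC50; most scored high, so higher reads as stronger inhibition. Most other retested compounds had strongly negative values. Size under these conditions: about 69,000 compounds, about 10 of them at 50% or above in at least one test.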

The filed quantity is “Percent Effect” (%).
The record does not define 0% and 100%; most values in the screen are far below 50% and negative numbers occur (in some assays of this library far below -100).
The compounds are a random part of those screened.

SMILES	TcHisRS	ClpP1P2
CCN(CC)C(=O)C1CCC2(CCNCC2)CO1 (centres unmarked)	7.097	6.497
Cc1noc(C)c1CN1C[C@H]2CNC[C@H]2C1	13.33	3.634
c1ccc(COc2ccccc2CNC2CCc3ncnn3C2)cc1 (centres unmarked)	3.812	-19.15
COCCNC(=O)CCn1ncc2c(Cl)cccc21	0	-4.032
COc1cccc(CNC(=O)C(C)n2ccnc2C(C)C)c1OC (centres unmarked)	-1.932	-29.97
CC(C)N1CCC2(CC1)CC(NCc1ccccn1)c1ccccc1O2 (centres unmarked)	0	-1.912
CN(CC(N)=O)Cc1c(Cl)ccc2cccnc12	0	-0.2021
O=c1[nH]nc2nc(N3CCCC3)ccn12	-0.4878	-7.676
COCC(=O)NC[C@H]1C[C@@H]2CCN1C[C@@H]2CN(C)c1ccccc1	5.435	-15.29
CC(=O)N1CCN(Cc2c(C)ccc3ccccc23)CC(O)C1 (centres unmarked)	-1.19	-10.56
CN1CCCc2c1nc1c(c2N)CCCC1	-2.062	3.036
C[C@H](NC(=O)OC(C)(C)C)c1nnc(S(=O)(=O)Cc2cccc(F)c2)o1	6	-18.55
Cc1cnn(C(C)C2CC2)c1NC(=O)c1ccc(Cn2cnnn2)cc1 (centres unmarked)	0	-2.113
COC(=O)CNC(=O)c1sccc1N(C)S(=O)(=O)c1ccc(Cl)cc1	6	13.32
O=C(NCc1ccccc1)C1=NOC2(CCNC2)C1 (centres unmarked)	-4.132	4.492
Cc1cc(NC(=O)CNC(C)(C)c2ccc3c(c2)OCO3)on1	1.01	7.556
CCCNC(=O)NC(=O)CN(CC(C)O)c1ccccc1 (centres unmarked)	-0.3774	12.25
COCCN(C)C[C@@H]1CN(C(=O)c2ccoc2)C[C@@H]1CO	3.333	-10.71
Cc1ncoc1C(=O)N1CC[C@@H](O)[C@@H](O)[C@H](N2CCC(F)(F)CC2)C1	7.778	-5.478
N#Cc1cc2c(=O)n(CC(O)c3cccc(O)c3)ccc2[nH]c1=O (centres unmarked)	3.665	-20.56
O=C(CCSc1ccccc1)NS(=O)(=O)c1ccc2c(c1)OCCO2	0	-22.03
CN(CCCOc1ccccc1)S(=O)(=O)N1CCOCC1	-9.36	-3.69
Cc1ccc(S(=O)(=O)NC(=O)c2cc(S(C)(=O)=O)ccc2C)s1	0	1.428
CCOc1ccc(Cl)c(C(=O)NCCc2ncc[nH]2)n1	7.918	-16.68
Cc1cc(NC(=O)C(C)N2CCN(c3nc(C)cs3)CC2)on1 (centres unmarked)	0.8333	-27.26
O=C(NCc1ccc2nonc2c1)C1CCN(C(=O)C2CCC2)CC1	2.597	-8.273
CCN(C(=O)CSc1ccc(C(F)(F)F)cn1)C1CC1	10.84	-4.009
COCCN1CC[C@@H](O)[C@@H]1Cc1ccccc1	-2.732	-4.383
OC[C@H]1CC[C@]2(CC1)CN(Cc1ccsc1)Cc1ccccc1O2	11.11	6.407
COCCCC(=O)NC1(c2cccc(Br)c2)CC1	2.956	-11.4
O=C(c1cccs1)N1CCc2c(nc(N3CCCC3)[nH]c2=O)C1	3.191	-10.93
O=C(c1cnc(-c2noc3cc(N4CCCC4)ccc23)s1)N1CCCC1	6.135	-4.093
Cn1nnc(NCc2ccc(OCc3ccc(Cl)cc3)cc2)n1	-10	-15.76
O=C(C1CCOC1)N1CCN(CC(F)(F)F)c2ccccc21 (centres unmarked)	5.025	-12.45
COCCN1CCN(C(=O)c2cc(C(C)C)on2)[C@H]2CS(=O)(=O)C[C@H]21	1.626	-1.074
COc1ccc(CN2CC(=O)N(c3ccc(C)cc3)CC2C)cc1O (centres unmarked)	3.571	-14.02
O=C(c1cnc(O)cn1)N(Cc1ccsc1)CC1CCCO1 (centres unmarked)	-3.922	-20.75
O=C(O)c1cc2n(n1)CCCN(C(=O)CCc1c[nH]c3ccccc13)C2	-0.9662	-18.45
N#Cc1c[nH]c(C(=O)N(Cc2ccc(O)cc2)CC2CC2)c1	2.941	4.062
CNc1ccnc(N(C)Cc2cc(-c3cccs3)n[nH]2)n1	4.523	-5.526
CN(C)C(=O)COC[C@H]1CC[C@@H]2[C@@H](CCN2Cc2ccco2)O1	7.035	-2.586
CC1CCCN(CCCNC(=O)c2ccc(N(C)S(C)(=O)=O)cc2Cl)C1 (centres unmarked)	4.036	-11.11
O=C(C1CC(=O)N(C2CC2)C1)N1CCN(CCn2cccc2)CC1 (centres unmarked)	5.435	7.018
O=C(N1CCN(c2ccccc2O)CC1)C1(O)Cc2ccccc2C1	-2.105	-10.09
CCOC(=O)c1sc2ccsc2c1CNC(=O)CCOC	2.624	-26.88
CC(NC(=O)NCc1cccnc1N1CCCCC1)c1nccs1 (centres unmarked)	-0.7634	-0.323
Cc1ncc(CN2Cc3ccccc3O[C@]3(CC[C@H](CO)CC3)C2)cn1	4.865	1.741
CC(C)N(Cc1cccc(F)c1)Cc1nc2c(cnn2C)c(=O)[nH]1	3.053	14.57
CC(C)N(Cc1ccc(Cl)c(Cl)c1)C(=O)Cn1cncn1	6.186	12.2
O=C(CCn1ccc2ccc(F)cc21)/N=c1\[nH]nc(C2CCCO2)s1 (centres unmarked)	4.95	-3.826
CN(C(=O)[C@H]1CSCN1C(=O)OC(C)(C)C)C1CC1	-0.6135	-9.604
COc1ccc(C(=O)N2C[C@@H](C)[C@@](C)(O)C2)cc1N1CCOCC1	0.578	-10.22
Cc1cc(F)ccc1OC1(C(=O)O)CCN(Cc2cccnc2N)CC1	9.544	-6.053
O=C(c1ccnnc1)N1C[C@H](OCC2CC2)[C@H]2COC[C@H]21	5.785	2.356
Cc1nnc2ccc(OCCNS(C)(=O)=O)nn12	6.25	-2.308
NCCc1nc(N(Cc2cncs2)C2CC2)c2ccccc2n1	4.938	8.332
O=C(Nc1cccnc1)NC1CCN(c2ccccc2OC(F)F)C1 (centres unmarked)	8.642	-3.179
CCCS(=O)(=O)N1CCC2(CC1)CN(C(=O)N(C)C)c1ccccc12	4.348	-6.026
CCc1nn(-c2cc(Oc3cc(C)ccc3C)nc(C)n2)c(N)c1C#N	-18.56	4.157
CC(Cn1cc(Br)cn1)C(=O)Nc1ccncc1 (centres unmarked)	3.509	1.598
CCn1cnnc1CNC(=O)N(C)Cc1ccc2c(c1)OCCO2	0	14
CO[C@H]1CN(Cc2ccccc2F)C[C@@]12CCCO2	5.495	-1.771
CN(CCN1CCCCCC1)C(=O)c1cc(CN2CCCC(O)C2)on1 (centres unmarked)	1.571	6.161
c1csc(CN2CCc3nc(N4CCOCC4)nc(NC4CC4)c3C2)n1	-5.376	18.12
O=C(O)CCn1nc(C(F)(F)F)c(Cl)c1C1CC1	0	-10.83
COc1c(CNCc2cccc(Cn3ccnc3C)c2)c(C)nn1C	6.977	-9.574

The last 3 entries again:

SMILES	TcHisRS	ClpP1P2
c1csc(CN2CCc3nc(N4CCOCC4)nc(NC4CC4)c3C2)n1	-5.376	18.12
O=C(O)CCn1nc(C(F)(F)F)c(Cl)c1C1CC1	0	-10.83
COc1c(CNCc2cccc(Cn3ccnc3C)c2)c(C)nn1C	6.977	-9.574